The name of at least one read-out is uncertain.
Assays:
Format in all cases: in vivo
corn [1] = test: Example 17, Procedure II: Herbicide No. 1 + vernolate (No. 11) with antidotes
Procedure: (§1) Containers were filled and compacted with a fumigated silt loam top soil to a depth of about 1.3 cm from the top of the container. A first container was designated as an untreated control, a second container was designated as a herbicide control, and a third container was designated as a herbicide + antidote test container. Each of the containers was seeded with a crop species. A measured amount of herbicide dispersed or dissolved in acetone was applied to a measured quantity of soil. To this same quantity of soil treated with herbicide, there was added a measured amount of antidote dispersed or dissolved in acetone. The quantity of soil treated with the herbicide and antidote was thoroughly mixed to incorporate the herbicide and antidote in the soil uniformly. The seed bed in the third container of soil was covered with the soil treated with the herbicide and antidote and the container was leveled. For each test series, the seed beds of the first and second containers were likewise covered by soil layers. the cover layer of the first container was not treated with herbicide or antidote.
(§2) The containers were then placed on a bench in a greenhouse and sub-irrigated as required for the duration of the test. […] Plant response is measured in terms of percent injury. Antidote efficacy is indicated as the difference in plant injury by the herbicide(s) without the antidote and with the antidote.
(§3) This procedure is the same as Procedure I, but modified in the manner that after incorporation of the chemicals (herbicide and antidote) the containers with the covered seedbed were treated with an initial overhead irrigation equivalent to 0.6 cm rainfall, then subsequently sub-irrigated as required on greenhouse benches.
(§4) The test procedure used in these experiments was that of Procedure II described above. The antidotes were applied to a soil cover layer by pipet after spraying the herbicides onto the soil, followed by incorporation and overhead irrigation.
In this example, the co-herbicidal compound tested in the composition with Herbicide No. 1 was vernolate (Herbicide No. 11); this compound is the active ingredient in VERNAM® herbicide. The antidotes and procedure used in these experiments were the same as in Examples 15 and 16.

[2] = system: velvetleaf (Abutilon theophrasti); test: Example 1, greenhouse Procedure II: antidotes against Herbicide No. 1
[3] = system: barnyardgrass (Echinochloa crusgalli); test: Example 16, Procedure II: Herbicide No. 1 + EPTC (No. 4, EPTAM) with antidotes
corn [4] = test: Example 2, Procedure II: dichloroacetamide antidotes against Herbicide No. 1
Procedure: as §1, §2, §3
In this example, a plurality of dichloroacetamide antidotes were tested for their safening efficacy against Herbicide No. 1 in corn, using Procedure II. In this test the weed was velvetleaf; barnyardgrass was not present in this test.

[5] = system: barnyardgrass (Echinochloa crusgalli); test: Example 1, greenhouse Procedure II: antidotes against Herbicide No. 1
[6] = system: velvetleaf (Abutilon theophrasti); test: Example 13, Procedure II: Herbicide No. 1 + acetochlor (No. 6) with dichloroacetamide antidotes
corn [7] = test: Example 1, greenhouse Procedure II: antidotes against Herbicide No. 1
Procedure: as §1, §2, §3
In the series of greenhouse tests described below, for routine screening purposes the herbicide/antidote compositions were tested in crop/weed combinations involving corn as the crop and either or both of the weeds barnyardgrass (Echinochloa crusgalli), a monocotyledonous weed, and velvetleaf (Abutilon theophrasti), a dicotyledonous weed. In the tables below, these weeds are indicated by the symbols "BYG" and "VL", respectively.
This example was designed to investigate the antidotal efficacy of a plurality of antidotes against Herbicide No. 1 in corn in the presence of barnyard grass and velvetleaf. The antidotes used in this example were Antidote Nos. 1-10, 12, 13 and 15.
The test in this example was conducted as described above for Procedure II. The antidotes were applied to the soil cover layer by pipet after spraying on the herbicide followed by incorporation and simulated rain.

[8] = system: barnyardgrass (Echinochloa crusgalli); test: Example 12, Procedure II: Herbicide No. 1 + acetochlor (No. 6) with thirteen antidotes
[9] = system: velvetleaf (Abutilon theophrasti); test: Example 2, Procedure II: dichloroacetamide antidotes against Herbicide No. 1
[10] = system: velvetleaf (Abutilon theophrasti); test: Example 16, Procedure II: Herbicide No. 1 + EPTC (No. 4, EPTAM) with antidotes
[11] = system: barnyardgrass (Echinochloa crusgalli); test: Example 15, Procedure II: Herbicide No. 1 + butylate (No. 10) with antidotes
[12] = system: velvetleaf (Abutilon theophrasti); test: Example 17, Procedure II: Herbicide No. 1 + vernolate (No. 11) with antidotes
[13] = system: velvetleaf (Abutilon theophrasti); test: Example 12, Procedure II: Herbicide No. 1 + acetochlor (No. 6) with thirteen antidotes
corn [14] = test: Example 16, Procedure II: Herbicide No. 1 + EPTC (No. 4, EPTAM) with antidotes
Procedure: as §1, §2, §3, §4
In this example, the same antidotes and procedure as described in the preceding example were used, except that the co-herbicide in the experiments of this example was EPTC, active ingredient in the commercial herbicide EPTAM®; EPTC is identified as Herbicide No. 4.

[15] = system: velvetleaf (Abutilon theophrasti); test: Example 15, Procedure II: Herbicide No. 1 + butylate (No. 10) with antidotes
[16] = Herbicide No.1 0.56 kg/ha + VERNAM 6.72 kg/ha, antidote 2.24 kg/ha
[17] = Herbicide No.1 0.56 kg/ha + VERNAM 6.72 kg/ha, antidote 8.96 kg/ha
[18] = Herbicide No.1 1.12 kg/ha + VERNAM 6.72 kg/ha, antidote 2.24 kg/ha
[19] = Herbicide No.1 1.12 kg/ha + VERNAM 6.72 kg/ha, antidote 8.96 kg/ha
[20] = Herb. No. 1 0.14 kg/ha + antidote 2.24 kg/ha
[21] = Herb. No. 1 0.14 kg/ha + antidote 8.96 kg/ha
[22] = Herb. No. 1 0.56 kg/ha + antidote 2.24 kg/ha
[23] = Herb. No. 1 0.56 kg/ha + antidote 8.96 kg/ha
[24] = Herbicide No.1 0.56 kg/ha + EPTAM 6.72 kg/ha, antidote 2.24 kg/ha
[25] = Herbicide No.1 0.56 kg/ha + EPTAM 6.72 kg/ha, antidote 8.96 kg/ha
[26] = Herbicide No.1 1.12 kg/ha + EPTAM 6.72 kg/ha, antidote 2.24 kg/ha
[27] = Herbicide No.1 1.12 kg/ha + EPTAM 6.72 kg/ha, antidote 8.96 kg/ha
[28] = Herb. No. 1 0.56 kg/ha + antidote 0.56 kg/ha
[29] = Herb. No. 1 2.24 kg/ha + antidote 0.56 kg/ha
[30] = Herb. No. 1 2.24 kg/ha + antidote 2.24 kg/ha
[31] = Herbicide No.1 0.56 kg/ha + Herbicide No.6 4.48 kg/ha, antidote rate 0.56 kg/ha
[32] = Herbicide No.1 0.56 kg/ha + Herbicide No.6 4.48 kg/ha, antidote rate 2.24 kg/ha
[33] = Herbicide No.6 4.48 kg/ha, no Herbicide No.1, antidote rate 0.56 kg/ha
[34] = Herbicide No.6 4.48 kg/ha, no Herbicide No.1, antidote rate 2.24 kg/ha
[35] = Herbicide No.1 0.14 kg/ha + Herbicide No.6 2.24 kg/ha, antidote rate 2.24 kg/ha
[36] = Herbicide No.1 0.14 kg/ha + Herbicide No.6 2.24 kg/ha, antidote rate 8.96 kg/ha
[37] = Herbicide No.1 0.56 kg/ha + Herbicide No.6 2.24 kg/ha, antidote rate 2.24 kg/ha
[38] = Herbicide No.1 0.56 kg/ha + Herbicide No.6 2.24 kg/ha, antidote rate 8.96 kg/ha
[39] = Herb. No. 1 0.14 kg/ha + antidote 0.56 kg/ha
[40] = Herbicide No.1 0.56 kg/ha + Herbicide No.10 6.72 kg/ha, antidote rate 2.24 kg/ha
[41] = Herbicide No.1 0.56 kg/ha + Herbicide No.10 6.72 kg/ha, antidote rate 8.96 kg/ha
[42] = Herbicide No.1 1.12 kg/ha + Herbicide No.10 6.72 kg/ha, antidote rate 2.24 kg/ha
[43] = Herbicide No.1 1.12 kg/ha + Herbicide No.10 6.72 kg/ha, antidote rate 8.96 kg/ha

CC1(C)OC(c2ccco2)CN1C(=O)C(Cl)Cl (stereo not drawn) [compound 15]
% Injury Corn (corn [1]; [16]): 0% | % Injury Corn (corn [1]; [17]): 15% | % Injury Corn (corn [1]; [18]): 15% | % Injury Corn (corn [1]; [19]): 0% | % Injury VL [2, 20]: 65% | % Injury VL [2, 21]: 65% | % Injury VL [2, 22]: 80% | % Injury VL [2, 23]: 70% | % Injury BYG [3, 24]: 85% | % Injury BYG [3, 25]: 85% | % Injury BYG [3, 26]: 80% | % Injury BYG [3, 27]: 85% | % Injury Corn (corn [4]; [20]): 10% | % Injury Corn (corn [4]; [28]): 10% | % Injury Corn (corn [4]; [22]): 15% | % Injury Corn (corn [4]; [29]): 10% | % Injury Corn (corn [4]; [30]): 10% | % Injury BYG [5, 20]: 45% | % Injury BYG [5, 21]: 40% | % Injury BYG [5, 22]: 55% | % Injury BYG [5, 23]: 55% | % Injury VL [6, 31]: 100% | % Injury VL [6, 32]: 90% | % Injury VL [6, 33]: 20% | % Injury VL [6, 34]: 95% | % Injury Corn (corn [7]; [21]): 15% | % Injury Corn (corn [7]; [23]): 10% | % Injury BYG [8, 35]: 100% | % Injury BYG [8, 36]: 100% | % Injury BYG [8, 37]: 100% | % Injury BYG [8, 38]: 100% | % Injury VL [9, 39]: 75% | % Injury VL [9, 20]: 65% | % Injury VL [9, 28]: 90% | % Injury VL [9, 22]: 95% | % Injury VL [9, 29]: 95% | % Injury VL [9, 30]: 90% | % Injury VL [10, 24]: 75% | % Injury VL [10, 25]: 75% | % Injury VL [10, 26]: 70% | % Injury VL [10, 27]: 75% | % Injury BYG [11, 40]: 98% | % Injury BYG [11, 41]: 99% | % Injury BYG [11, 42]: 97% | % Injury BYG [11, 43]: 97% | % Injury VL [12, 16]: 85% | % Injury VL [12, 17]: 80% | % Injury VL [12, 18]: 80% | % Injury VL [12, 19]: 95% | % Injury VL [13, 35]: 70% | % Injury VL [13, 36]: 75% | % Injury VL [13, 37]: 90% | % Injury VL [13, 38]: 80% | % Injury Corn (corn [14]; [24]): 10% | % Injury Corn (corn [14]; [25]): 10% | % Injury Corn (corn [14]; [27]): 15% | % Injury VL [15, 40]: 75% | % Injury VL [15, 41]: 80% | % Injury VL [15, 42]: 85% | % Injury VL [15, 43]: 85%

C=CCN(CC=C)C(=O)C(Cl)Cl [compound 1]
% Injury Corn (corn [1]; [16]): 5% | % Injury Corn (corn [1]; [17]): 0% | % Injury Corn (corn [1]; [18]): 10% | % Injury Corn (corn [1]; [19]): 10% | % Injury VL [2, 20]: 75% | % Injury VL [2, 21]: 85% | % Injury VL [2, 22]: 95% | % Injury VL [2, 23]: 90% | % Injury BYG [3, 24]: 80% | % Injury BYG [3, 25]: 95% | % Injury BYG [3, 26]: 85% | % Injury BYG [3, 27]: 85% | % Injury Corn (corn [4]; [39]): 10% | % Injury Corn (corn [4]; [20]): 10% | % Injury Corn (corn [4]; [28]): 10% | % Injury Corn (corn [4]; [22]): 25% | % Injury Corn (corn [4]; [29]): 30% | % Injury Corn (corn [4]; [30]): 40% | % Injury BYG [5, 20]: 60% | % Injury BYG [5, 21]: 50% | % Injury BYG [5, 22]: 75% | % Injury BYG [5, 23]: 85% | % Injury VL [6, 31]: 5% | % Injury VL [6, 32]: 85% | % Injury VL [6, 33]: 100% | % Injury VL [6, 34]: 60% | % Injury Corn (corn [7]; [20]): 10% | % Injury Corn (corn [7]; [22]): 15% | % Injury Corn (corn [7]; [23]): 0% | % Injury BYG [8, 35]: 100% | % Injury BYG [8, 36]: 100% | % Injury BYG [8, 37]: 100% | % Injury BYG [8, 38]: 100% | % Injury VL [9, 39]: 100% | % Injury VL [9, 20]: 90% | % Injury VL [9, 28]: 95% | % Injury VL [9, 22]: 85% | % Injury VL [9, 29]: 100% | % Injury VL [9, 30]: 100% | % Injury VL [10, 24]: 80% | % Injury VL [10, 25]: 70% | % Injury VL [10, 26]: 80% | % Injury VL [10, 27]: 75% | % Injury BYG [11, 40]: 97% | % Injury BYG [11, 41]: 90% | % Injury BYG [11, 42]: 93% | % Injury BYG [11, 43]: 90% | % Injury VL [12, 16]: 85% | % Injury VL [12, 17]: 80% | % Injury VL [12, 18]: 85% | % Injury VL [12, 19]: 85% | % Injury VL [13, 35]: 65% | % Injury VL [13, 36]: 80% | % Injury VL [13, 37]: 80% | % Injury VL [13, 38]: 80% | % Injury Corn (corn [14]; [24]): 0% | % Injury Corn (corn [14]; [25]): 0% | % Injury Corn (corn [14]; [26]): 0% | % Injury Corn (corn [14]; [27]): 15% | % Injury VL [15, 40]: 80% | % Injury VL [15, 41]: 70% | % Injury VL [15, 42]: 70% | % Injury VL [15, 43]: 65%
